Data on two molecules can be found in paper doi:10.1101/2022.10.14.512051.

Protein sequences, listed by entry. Tags and fused reporters are not part of them.
UniProt Q13620: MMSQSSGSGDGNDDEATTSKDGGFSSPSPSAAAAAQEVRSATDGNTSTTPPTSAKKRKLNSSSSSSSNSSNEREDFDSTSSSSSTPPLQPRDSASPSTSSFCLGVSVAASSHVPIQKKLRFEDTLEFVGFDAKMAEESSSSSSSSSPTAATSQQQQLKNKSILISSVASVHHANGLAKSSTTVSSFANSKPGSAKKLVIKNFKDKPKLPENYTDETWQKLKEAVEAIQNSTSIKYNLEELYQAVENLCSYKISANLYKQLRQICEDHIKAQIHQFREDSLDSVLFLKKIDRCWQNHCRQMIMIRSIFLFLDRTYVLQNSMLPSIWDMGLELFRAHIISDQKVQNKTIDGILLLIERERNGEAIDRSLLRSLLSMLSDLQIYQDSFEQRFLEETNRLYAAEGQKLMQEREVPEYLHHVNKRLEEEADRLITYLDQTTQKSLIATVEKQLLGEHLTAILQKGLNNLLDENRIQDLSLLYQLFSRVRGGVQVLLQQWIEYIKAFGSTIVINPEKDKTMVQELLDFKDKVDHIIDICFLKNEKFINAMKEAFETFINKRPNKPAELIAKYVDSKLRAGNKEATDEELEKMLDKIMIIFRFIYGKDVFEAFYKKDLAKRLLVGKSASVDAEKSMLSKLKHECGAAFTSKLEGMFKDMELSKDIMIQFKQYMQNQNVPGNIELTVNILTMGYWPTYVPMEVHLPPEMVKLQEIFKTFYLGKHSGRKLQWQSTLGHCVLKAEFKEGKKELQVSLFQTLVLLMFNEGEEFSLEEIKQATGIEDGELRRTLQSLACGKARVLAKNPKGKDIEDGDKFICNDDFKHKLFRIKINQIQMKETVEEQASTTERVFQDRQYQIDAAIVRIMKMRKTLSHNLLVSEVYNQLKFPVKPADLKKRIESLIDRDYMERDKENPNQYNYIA

For the assay, the target named is HA-tagged CUL4B, wild type (endogenously tagged) (human (endogenous in HeLa Kyoto)) (UniProt Q13620). Briefly: affinity purification with mass spectrometry.

These are yes or no findings as the source states them, for the method shown. In cells and extracts the contact can be indirect. These calls come from enrichment with a bait or labelling near it, and not all partners need be listed.

B1: WDR1 (endogenous) (protein, UniProt O75083 1-606)
chain: MPYEIKKVFASLPQVERGVSKIIGGDPKGNNFLYTNGKCVILRNIDNPALADIYTEHAHQVVVAKYAPSGFYIASGDVSGKLRIWDTTQKEHLLKYEYQPFAGKIKDIAWTEDSKRIAVVGEGREKFGAVFLWDSGSSVGEITGHNKVINSVDIKQSRPYRLATGSDDNCAAFFEGPPFKFKFTIGDHSRFVNCVRFSPDGNRFATASADGQIYIYDGKTGEKVCALGGSKAHDGGIYAISWSPDSTHLLSASGDKTSKIWDVSVNSVVSTFPMGSTVLDQQLGCLWQKDHLLSVSLSGYINYLDRNNPSKPLHVIKGHSKSIQCLTVHKNGGKSYIYSGSHDGHINYWDSETGENDSFAGKGHTNQVSRMTVDESGQLISCSMDDTVRYTSLMLRDYSGQGVVKLDVQPKCVAVGPGGYAVVVCIGQIVLLKDQRKCFSIDNPGYEPEVVAVHPGGDTVAIGGVDGNVRLYSILGTTLKDEGKLLEAKGPVTDVAYSHDGAFLAVCDASKVVTVFSVADGYSENNVFYGHHAKIVCLAWSPDNEHFASGGMDMMVYVWTLSDPETRVKIQDAHRLHHVSSLAWLDEHTLVTTSHDASVKEWTITY
Regarding B1, the binding result was “binds”.

B2: LIS1 (endogenous) (protein, UniProt P43034 1-410)
chain: MVLSQRQRDELNRAIADYLRSNGYEEAYSVFKKEAELDVNEELDKKYAGLLEKKWTSVIRLQKKVMELESKLNEAKEEFTSGGPLGQKRDPKEWIPRPPEKYALSGHRSPVTRVIFHPVFSVMVSASEDATIKVWDYETGDFERTLKGHTDSVQDISFDHSGKLLASCSADMTIKLWDFQGFECIRTMHGHDHNVSSVAIMPNGDHIVSASRDKTIKMWEVQTGYCVKTFTGHREWVRMVRPNQDGTLIASCSNDQTVRVWVVATKECKAELREHEHVVECISWAPESSYSSISEATGSETKKSGKPGPFLLSGSRDKTIKMWDVSTGMCLMTLVGHDNWVRGVLFHSGGKFILSCADDKTLRVWDYKNKRCMKTLNAHEHFVTSLDFHKTAPYVVTGSVDQTVKVWECR
On to B2, for which the binding entry is “binds”.
